PubChem BioAssay AID1259308, NCATS | 2017
This is a random part of about 59,000 deposited reagents. Over the whole deposit, about 1,510 (2.6%) were called active. 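Calls use total luciferase alone and ignore viability, so some active siRNAs may act by altering cell number.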 A number with no mark means an inactive call. Reagents against one gene are numbered here. Not all columns of the deposit are shown.

- Aim: 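Genes whose loss raises luciferase production in HEK293 cells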 (primary screen)
- Cells: human HEK293 embryonic kidney cells stably expressing firefly luciferase (HEK-CMV-Luc2-Hygro)
- Knock-down reagent: single siRNA against human genes, 0.8 pmol siRNA per well
- Time to read-out: 72 h
- Read-out: 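Reporter luminescence and viable-cell signal on separate replicate plates, given as percent of non-targeting control and median/MAD z-scores, plus per-cell luciferase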
- Scale: total luciferase, z-score: higher = more reporter protein produced
- Rule for the call: 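An siRNA counts as active if its total luciferase robust z-score exceeds 3; genes with two or more such siRNAs out of three were retested with fresh siRNAs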
- Calls: active = raised luciferase; inactive = no rise

Target gene	siRNA no.	total luciferase, z-score
LCN1P2	1	-2.42
LCN1P2	2	-0.113
LCN1P2	3	-0.837
CXCL11	1	1.34
CXCL11	2	-0.655
CXCL11	3	-0.759
RPS28	1	-2.85
RPS28	2	-2.78
RPS28	3	-2.27
STYK1	1	0.0801
STYK1	2	-0.158
STYK1	3	-0.59
ANK1	1	-0.44
ANK1	2	1.93
ANK1	3	-1.05
FTCDNL1	1	0.579
FTCDNL1	2	0.0848
FTCDNL1	3	-0.467
MTO1	1	0.306
MTO1	2	-1.31
MTO1	3	-0.329
MCM6	1	-2.16
MCM6	2	-0.402
MCM6	3	-1.02
DSCAML1	1	-0.43
DSCAML1	2	2.33
DSCAML1	3	1.53
DENND2A	1	1.54
DENND2A	2	0.955
DENND2A	3	-1.1
YWHAZ	1	-1.15
YWHAZ	2	-0.713
YWHAZ	3	0.946
GJD2	1	0.552
GJD2	2	-0.104
GJD2	3	0.719
NHLH2	1	-0.472
NHLH2	2	-1.07
NHLH2	3	0.905
C17orf78	1	0.674
C17orf78	2	-1.06
C17orf78	3	-1.02
BAG3	1	2.12
BAG3	2	-0.0148
BAG3	3	-0.391
ENO3	1	-1.09
ENO3	2	-0.51
ENO3	3	2.54
ERMAP	1	0.463
ERMAP	2	-0.329
ERMAP	3	-0.127
ZNF22	1	0.131
ZNF22	2	1.88
ZNF22	3	-0.168
ITIH1	1	-0.968
ITIH1	2	-0.754
ITIH1	3	0.0461
TRIM39	1	-1.08
TRIM39	2	0.94
TRIM39	3	1.66
DNPH1	1	0.693
DNPH1	2	0.643
DNPH1	3	-0.286
SFTA3	1	0.34
SFTA3	2	-0.408
SFTA3	3	1.21
OR51Q1	1	-0.702
OR51Q1	2	-0.25
OR51Q1	3	-0.749
MAP6D1	1	0.536
MAP6D1	2	-0.692
MAP6D1	3	0.291
FOXA2	1	0.227
FOXA2	2	0.455
FOXA2	3	1.56

10 consecutive records already listed, for reference:
Target gene	siRNA no.	total luciferase, z-score
DENND2A	1	1.54
DENND2A	2	0.955
DENND2A	3	-1.1
YWHAZ	1	-1.15
YWHAZ	2	-0.713
YWHAZ	3	0.946
GJD2	1	0.552
GJD2	2	-0.104
GJD2	3	0.719
NHLH2	1	-0.472
